Measurements as given in PMC7075923.
These are yes or no findings as the source states them, for the method shown. Tags and fused reporters may be left off the sequences shown.

Experiments:
[1] = target: p7^fnf (CarMV p7 with the C-terminal FNF triplet mutated to alanine), Gal4-BD fusion (Carnation mottle virus); assay: two-hybrid; GAL4 […] system, yeast AH109; DGBp1s and their fnf mutants as Gal4-BD fusions against full-length Arabidopsis ORFs as Gal4-AD fusions; controls pBD-p53 and pAC-ILR3; growth on SD + DO-A-H-L-W + X-alpha Gal
[2] = target: p8^fnf (TCV p8 with the C-terminal FNF triplet mutated to alanine), Gal4-BD fusion (Turnip crinkle virus); assay: as above

B1: 60 S acidic ribosomal protein P3 (RPP3A), Gal4-AD fusion (protein, UniProt Q9SVZ6 1-119)
chain: MGVFTFVCKNGGGAWSAKQHEGELESSASSTYELQRKLVQVSLSADSSGGVQSSFSLVSPTSAVFQVIVGGGGGGGFSAGGAASSGGGAGEAAAAPKEDEKKKEESEEEEGDFGFDLFG
**Q.** With B1 as the binder, how does the binding [1] read?
**A.** no binding

**Q.** What about the binding [2] of the same binder?
**A.** no binding
